This is an account of results in the supplement of paper PMC10849652.

By UniProt entry, the sequences of proteins in these tests, tags left out. Where a name states a change or a piece, a line headed by the entry shows the natural chain unless it says otherwise.
UniProt Q9UBD5: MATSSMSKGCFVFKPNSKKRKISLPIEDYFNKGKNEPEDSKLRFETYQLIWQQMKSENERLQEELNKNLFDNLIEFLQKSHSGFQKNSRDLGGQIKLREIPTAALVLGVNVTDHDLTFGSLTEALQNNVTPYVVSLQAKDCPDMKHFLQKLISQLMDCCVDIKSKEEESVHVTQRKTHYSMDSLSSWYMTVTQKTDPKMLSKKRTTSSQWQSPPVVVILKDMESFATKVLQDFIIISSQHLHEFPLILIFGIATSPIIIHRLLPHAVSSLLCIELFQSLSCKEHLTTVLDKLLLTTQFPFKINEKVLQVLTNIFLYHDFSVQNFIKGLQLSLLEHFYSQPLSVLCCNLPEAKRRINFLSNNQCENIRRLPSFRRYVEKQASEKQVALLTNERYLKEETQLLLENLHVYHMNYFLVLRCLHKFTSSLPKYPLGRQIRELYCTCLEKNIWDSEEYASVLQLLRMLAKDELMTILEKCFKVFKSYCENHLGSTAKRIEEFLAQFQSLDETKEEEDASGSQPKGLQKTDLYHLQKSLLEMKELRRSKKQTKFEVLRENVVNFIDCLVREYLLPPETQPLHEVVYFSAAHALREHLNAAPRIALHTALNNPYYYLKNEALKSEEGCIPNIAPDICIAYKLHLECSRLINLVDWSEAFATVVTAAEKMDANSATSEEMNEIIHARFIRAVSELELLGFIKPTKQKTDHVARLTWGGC
UniProt Q6N063: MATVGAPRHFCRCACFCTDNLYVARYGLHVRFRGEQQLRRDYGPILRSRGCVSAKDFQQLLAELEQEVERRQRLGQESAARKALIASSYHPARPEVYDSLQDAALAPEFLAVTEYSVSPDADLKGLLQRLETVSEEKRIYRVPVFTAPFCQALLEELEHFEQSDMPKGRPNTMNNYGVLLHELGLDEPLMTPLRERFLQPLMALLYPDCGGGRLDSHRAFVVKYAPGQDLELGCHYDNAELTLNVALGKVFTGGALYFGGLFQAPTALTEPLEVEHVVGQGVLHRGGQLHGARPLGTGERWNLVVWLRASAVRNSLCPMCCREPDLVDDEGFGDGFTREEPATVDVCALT
UniProt Q8NE18: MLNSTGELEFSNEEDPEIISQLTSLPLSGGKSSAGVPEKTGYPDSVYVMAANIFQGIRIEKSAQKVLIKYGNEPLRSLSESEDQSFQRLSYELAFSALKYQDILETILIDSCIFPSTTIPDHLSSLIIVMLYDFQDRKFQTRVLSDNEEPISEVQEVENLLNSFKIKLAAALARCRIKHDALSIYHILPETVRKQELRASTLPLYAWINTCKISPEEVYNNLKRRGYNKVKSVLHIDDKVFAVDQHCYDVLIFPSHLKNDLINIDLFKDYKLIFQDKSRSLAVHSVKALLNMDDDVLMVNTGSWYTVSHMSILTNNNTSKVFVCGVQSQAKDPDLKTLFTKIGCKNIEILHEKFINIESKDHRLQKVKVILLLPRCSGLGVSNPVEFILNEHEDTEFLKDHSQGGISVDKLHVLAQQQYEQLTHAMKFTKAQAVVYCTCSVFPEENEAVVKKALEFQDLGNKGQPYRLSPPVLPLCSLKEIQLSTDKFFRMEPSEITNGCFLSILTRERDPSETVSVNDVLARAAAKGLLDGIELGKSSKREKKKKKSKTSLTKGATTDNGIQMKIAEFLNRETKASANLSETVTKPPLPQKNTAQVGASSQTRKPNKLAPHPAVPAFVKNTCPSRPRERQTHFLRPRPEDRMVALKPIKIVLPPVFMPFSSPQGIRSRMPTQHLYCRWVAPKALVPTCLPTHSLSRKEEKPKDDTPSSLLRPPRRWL
UniProt Q8WV74: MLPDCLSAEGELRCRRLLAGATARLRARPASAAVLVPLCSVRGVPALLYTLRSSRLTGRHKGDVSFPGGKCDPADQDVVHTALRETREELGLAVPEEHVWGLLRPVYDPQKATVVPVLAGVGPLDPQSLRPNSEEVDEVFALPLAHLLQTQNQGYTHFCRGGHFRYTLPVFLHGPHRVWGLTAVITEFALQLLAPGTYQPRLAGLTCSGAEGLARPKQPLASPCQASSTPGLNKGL
UniProt Q8WZ82: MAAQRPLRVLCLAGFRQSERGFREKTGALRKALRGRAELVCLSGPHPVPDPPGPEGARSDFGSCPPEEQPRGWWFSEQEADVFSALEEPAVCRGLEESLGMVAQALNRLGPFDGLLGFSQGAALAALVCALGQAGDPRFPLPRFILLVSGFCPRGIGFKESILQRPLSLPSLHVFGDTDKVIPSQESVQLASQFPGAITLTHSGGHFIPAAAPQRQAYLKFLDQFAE
UniProt Q9P0S3: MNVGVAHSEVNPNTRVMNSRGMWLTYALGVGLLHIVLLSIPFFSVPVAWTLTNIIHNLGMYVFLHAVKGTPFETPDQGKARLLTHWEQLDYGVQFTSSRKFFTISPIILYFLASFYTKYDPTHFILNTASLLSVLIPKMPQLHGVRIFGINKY
UniProt Q8N573: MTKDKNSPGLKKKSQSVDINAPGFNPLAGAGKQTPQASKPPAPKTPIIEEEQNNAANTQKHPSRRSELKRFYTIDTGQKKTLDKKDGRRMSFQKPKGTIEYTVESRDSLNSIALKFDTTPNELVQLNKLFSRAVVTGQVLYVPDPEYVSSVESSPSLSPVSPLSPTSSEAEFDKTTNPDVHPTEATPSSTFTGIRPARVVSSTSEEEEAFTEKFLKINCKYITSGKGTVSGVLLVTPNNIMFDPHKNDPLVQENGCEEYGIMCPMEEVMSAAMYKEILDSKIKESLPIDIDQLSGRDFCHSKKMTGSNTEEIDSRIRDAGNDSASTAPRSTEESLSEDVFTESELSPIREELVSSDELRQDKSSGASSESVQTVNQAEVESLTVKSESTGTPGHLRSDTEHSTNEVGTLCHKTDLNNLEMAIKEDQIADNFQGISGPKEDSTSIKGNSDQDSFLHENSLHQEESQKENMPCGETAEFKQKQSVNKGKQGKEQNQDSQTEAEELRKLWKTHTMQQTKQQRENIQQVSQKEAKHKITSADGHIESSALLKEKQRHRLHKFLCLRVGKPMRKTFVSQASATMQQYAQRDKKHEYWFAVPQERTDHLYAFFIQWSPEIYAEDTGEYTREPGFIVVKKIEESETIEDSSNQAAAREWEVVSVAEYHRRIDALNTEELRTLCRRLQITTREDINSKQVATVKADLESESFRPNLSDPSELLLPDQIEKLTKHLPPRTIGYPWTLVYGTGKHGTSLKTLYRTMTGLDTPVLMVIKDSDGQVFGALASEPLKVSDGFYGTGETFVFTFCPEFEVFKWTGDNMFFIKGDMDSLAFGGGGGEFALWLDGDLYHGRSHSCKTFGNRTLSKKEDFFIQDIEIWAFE
UniProt Q9Y5N6: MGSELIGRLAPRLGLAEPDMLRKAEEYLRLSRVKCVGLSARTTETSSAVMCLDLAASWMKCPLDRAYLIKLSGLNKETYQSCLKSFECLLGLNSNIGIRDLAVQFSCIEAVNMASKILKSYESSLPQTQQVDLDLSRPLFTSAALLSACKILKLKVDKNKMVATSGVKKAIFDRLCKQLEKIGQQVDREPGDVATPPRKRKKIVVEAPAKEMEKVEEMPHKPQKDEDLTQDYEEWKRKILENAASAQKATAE
UniProt Q96D31, whole entry, looked up: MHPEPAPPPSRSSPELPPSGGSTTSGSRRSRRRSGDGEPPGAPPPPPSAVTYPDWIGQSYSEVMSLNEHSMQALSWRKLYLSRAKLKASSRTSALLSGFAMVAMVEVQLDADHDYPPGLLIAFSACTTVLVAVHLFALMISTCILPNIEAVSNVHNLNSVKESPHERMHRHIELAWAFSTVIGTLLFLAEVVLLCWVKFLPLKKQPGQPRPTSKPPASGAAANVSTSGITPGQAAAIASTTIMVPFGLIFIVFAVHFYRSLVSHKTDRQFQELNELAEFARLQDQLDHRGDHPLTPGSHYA
UniProt Q13416: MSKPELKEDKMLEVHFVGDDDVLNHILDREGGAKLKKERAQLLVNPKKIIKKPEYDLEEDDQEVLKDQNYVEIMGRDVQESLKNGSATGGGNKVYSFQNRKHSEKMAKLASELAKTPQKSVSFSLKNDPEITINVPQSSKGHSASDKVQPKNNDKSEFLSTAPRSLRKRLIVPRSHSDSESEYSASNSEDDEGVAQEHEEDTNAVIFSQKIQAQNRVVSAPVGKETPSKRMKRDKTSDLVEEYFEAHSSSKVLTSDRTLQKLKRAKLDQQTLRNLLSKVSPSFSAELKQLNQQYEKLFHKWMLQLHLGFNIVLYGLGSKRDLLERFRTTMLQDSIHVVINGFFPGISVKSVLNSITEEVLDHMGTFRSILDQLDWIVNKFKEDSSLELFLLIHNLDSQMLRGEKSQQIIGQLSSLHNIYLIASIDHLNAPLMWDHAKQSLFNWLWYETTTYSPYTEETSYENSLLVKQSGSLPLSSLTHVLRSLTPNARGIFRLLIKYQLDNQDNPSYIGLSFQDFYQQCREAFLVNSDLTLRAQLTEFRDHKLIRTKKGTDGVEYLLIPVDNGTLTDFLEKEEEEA
UniProt O15460: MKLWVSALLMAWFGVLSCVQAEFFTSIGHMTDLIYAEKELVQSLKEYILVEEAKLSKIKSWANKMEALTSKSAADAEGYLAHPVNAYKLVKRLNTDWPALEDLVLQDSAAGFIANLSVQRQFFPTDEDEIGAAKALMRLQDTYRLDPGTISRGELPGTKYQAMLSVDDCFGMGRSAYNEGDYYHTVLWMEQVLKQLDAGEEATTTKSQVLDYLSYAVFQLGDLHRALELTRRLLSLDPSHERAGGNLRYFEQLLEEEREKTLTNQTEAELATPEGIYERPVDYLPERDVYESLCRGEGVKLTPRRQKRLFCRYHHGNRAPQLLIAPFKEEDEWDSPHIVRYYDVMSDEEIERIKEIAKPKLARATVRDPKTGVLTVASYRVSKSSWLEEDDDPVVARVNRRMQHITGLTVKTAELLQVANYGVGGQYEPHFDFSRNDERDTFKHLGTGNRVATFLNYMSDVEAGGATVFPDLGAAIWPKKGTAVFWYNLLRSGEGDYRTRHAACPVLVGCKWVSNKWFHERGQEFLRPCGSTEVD
UniProt Q5BKU9: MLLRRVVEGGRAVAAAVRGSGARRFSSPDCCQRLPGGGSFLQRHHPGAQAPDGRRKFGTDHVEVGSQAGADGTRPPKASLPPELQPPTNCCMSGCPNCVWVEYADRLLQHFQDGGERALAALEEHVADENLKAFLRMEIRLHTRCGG
UniProt P53370: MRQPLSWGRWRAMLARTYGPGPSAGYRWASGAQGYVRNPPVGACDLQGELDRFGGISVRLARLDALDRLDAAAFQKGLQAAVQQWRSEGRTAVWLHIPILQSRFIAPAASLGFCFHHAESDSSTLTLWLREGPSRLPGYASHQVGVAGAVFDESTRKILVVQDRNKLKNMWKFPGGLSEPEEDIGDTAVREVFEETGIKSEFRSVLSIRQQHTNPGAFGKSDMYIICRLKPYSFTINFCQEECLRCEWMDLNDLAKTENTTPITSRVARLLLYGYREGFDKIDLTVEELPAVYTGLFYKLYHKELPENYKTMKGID
UniProt Q9ULJ1: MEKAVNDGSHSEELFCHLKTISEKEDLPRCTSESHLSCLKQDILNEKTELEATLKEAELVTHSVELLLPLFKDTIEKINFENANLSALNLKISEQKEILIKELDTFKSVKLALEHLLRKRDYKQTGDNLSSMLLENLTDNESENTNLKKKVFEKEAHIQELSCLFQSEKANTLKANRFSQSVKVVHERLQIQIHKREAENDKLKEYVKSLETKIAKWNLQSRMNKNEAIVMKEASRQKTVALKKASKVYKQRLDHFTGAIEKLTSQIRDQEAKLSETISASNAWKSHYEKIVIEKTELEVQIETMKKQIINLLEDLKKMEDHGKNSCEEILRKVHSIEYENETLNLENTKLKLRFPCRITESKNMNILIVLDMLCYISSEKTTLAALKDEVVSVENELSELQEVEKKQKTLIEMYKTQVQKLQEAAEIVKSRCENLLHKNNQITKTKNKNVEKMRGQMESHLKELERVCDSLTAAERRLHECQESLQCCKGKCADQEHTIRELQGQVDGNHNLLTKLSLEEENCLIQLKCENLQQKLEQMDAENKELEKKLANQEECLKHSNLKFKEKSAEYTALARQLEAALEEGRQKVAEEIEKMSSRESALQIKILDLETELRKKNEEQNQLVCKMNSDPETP

The other results are listed elsewhere or left out.

Compound in this experiment: c1cc(OCCN2CCCCC2)cc(-c2n[nH]c3ccc(-c4nnc[nH]4)cc23)c1
The experiment is described as follows: log2 fold change, soluble protein after heating vs DMSO (PISA); higher = thermal stabilisation; K562 cells, 10 uM, 30 min; active = over 0.2 and 3.5 SD of the protein, either way, in both replicates (recomputed). The procedure, abridged: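 K562 cells at 2×10^6 cells/mL were given 10 μM compound for 30 min. Aliquots then went through 3 min of heating across 48°C-58°C, were pooled, and were extracted in PBS with 0.5% NP-40 at 4°C, and the supernatant after 21,000xg for 90 min was quantified by TMTpro 16plex LC-MS/MS with channel sums equalised. Thermal stability relative to control samples, from duplicates, is given as log2 fold change.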
Turning to ORC3 (UniProt Q9UBD5), the log2 fold change is inactive: -0.195.

On to OGFOD2 (UniProt Q6N063), for which the log2 fold change is inactive: -0.012.

NSUN7 (UniProt Q8NE18): the log2 fold change is inactive: -0.281.

As to NUDT8 (UniProt Q8WV74), the log2 fold change is inactive: 0.372.

As to OVCA2 (UniProt Q8WZ82), the log2 fold change is inactive: 0.08.

Turning to ORMDL1 (UniProt Q9P0S3), the log2 fold change is inactive: -0.023.

Turning to OXR1 isoform 2 (UniProt Q8N573), the log2 fold change was inactive: -0.053.

As for ORC6 (UniProt Q9Y5N6), the log2 fold change was inactive: -0.135.

Regarding ORAI1 (UniProt Q96D31), the log2 fold change was inactive: -0.2.

With ORC2 (UniProt Q13416), the log2 fold change was inactive: -0.042.

On to P4HA2 (UniProt O15460), for which the log2 fold change is inactive: -0.021.

OXLD1 (UniProt Q5BKU9): the log2 fold change is inactive: -0.169.

Turning to NUDT6 (UniProt P53370), the log2 fold change is inactive: -0.385.

Consider ODF2L isoform 4 (UniProt Q9ULJ1), for which the log2 fold change was inactive: 0.115.

Turning to OBSCN (UniProt A6NGQ3), the log2 fold change was inactive: -0.041.
